According to US20040147595A1, “Biofilm degrading or sloughing compositions and methods” (priority 2001, published 2004):
Some entries share one result that the patent states for a list of compounds.

Tested on: bacterial growth
Experiment: Bacterial growth inhibition at the concentrations tested in the quorum sensor assay
Format: cell-based
From the text: The natural compound 2 has an IIX40 0.75 where as compound 30 and […] have IIX40 of 0.01 and 0.51 respectively.

SMILES	concentrations tested without bacterial growth inhibition	concentration slightly above which growth was inhibited
CCCCC1=C(Br)/C(=C/Br)OC1=O [Compound 2]	> 50 nm	
O=C1C=C/C(=C/Br)O1 [furanone 56]		> 50 nm
